Data source: PubChem BioAssay AID504786 (Drosophila RNAi Screening Center, 2011)
The screen tested about 21,000 reagents; below is a random part of those with a known target gene and a result. 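Primary screen; positive scores mean lost reporter signal, so the sign may be inverted from the usual convention.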 Reagents against one gene are numbered here. Names joined by + are all predicted targets of the reagent. Not all columns of the deposit are shown. Reagent sequences are not shown.

- Aim: 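Positive regulators of HIF-driven reporter output in Drosophila cells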 (primary screen)
- System: Drosophila S2 cells with a stable HIF luciferase reporter
- Knock-down reagent: long dsRNA against Drosophila genes, about 0.2 µg dsRNA per well of a 384-well plate
- Timing: three days of knock-down, then 20 h of DFO before reading
- Treatment: desferrioxamine (DFO) at 100 µM, an iron chelator that mimics hypoxia, for 20 h
- Read-out: 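Firefly luciferase driven by the mouse ldh-a hypoxia-response element, measured after 20 h of 100 µM DFO; z-scores per plate, higher means more signal lost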
- Scale: z-score: higher = stronger loss of HIF reporter signal

gene knocked down | reagent | z-score, replicate 1 | z-score, replicate 2
Scgalpha (Sarcoglycan alpha) | 1 | -0.3 | -0.1
Alg11 (ALG11, alpha-1,2-mannosyltransferase) | 1 | -0.2 | -0.3
CG14377 | 1 | -0.3 | -0.7
LanB1 | 1 | -0.3 | 0.9
CG1902 | 1 | -0.4 | -0.3
G6P (Glucose-6-Phosphatase) | 1 | 0.6 | 0.7
Fitm (Fat storage inducing transmembrane protein) | 1 | -0.3 | 0.6
mRpL37 (mitochondrial ribosomal protein L37) | 1 | 1.1 | 0.9
CG14106 | 1 | -0.3 | -0.4
Sox21a | 1 | -0.2 | 0
CG15599 | 1 | -0.4 | 0.1
bcn92 | 1 | -0.1 | -0.1
CG15382 | 1 | 0 | 0
Spase25 (Spase 25-subunit) | 1 | -0.5 | -0.4
Gnpat (Glyceronephosphate O-acyltransferase) | 1 | 0.2 | 1.9
TrpRS (Tryptophanyl-tRNA synthetase) | 1 | -0.1 | 0.3
Ugt35E2 (UDP-glycosyltransferase family 35 member E2) | 1 | -0.1 | 0.1
PolE1 (DNA polymerase epsilon subunit 1) | 1 | -0.2 | 0.2
Mad1 (Mitotic arrest-deficient 1) | 1 | -0.4 | -0.5
Arr2 (Arrestin 2) | 1 | -0.4 | -0.2
Rpt6 (Regulatory particle triple-A ATPase 6) | 1 | 0.6 | 1.8
SmD3 (Small ribonucleoprotein particle protein SmD3) | 1 | 5.8 | 3.9
HipHop (HP1-HOAP-interacting protein) | 1 | -0.3 | -0.7
CG11710 | 1 | -0.4 | -0.6
E(spl)mdelta-HLH (Enhancer of split mdelta, helix-loop-helix) | 1 | 0 | -0.1
a (arc) | 1 | 1.9 | 2.3
a (arc) | 2 | -0.3 | -0.2
CG7565 | 1 | -0.3 | -0.7
CG4133 | 1 | -0.1 | -0.6
Neos (Neosin) | 1 | 4.3 | 3.5
RpL37-1 (Ribosomal protein L37-1) | 1 | -0.2 | 1.2
naz (nazgul) | 1 | -0.6 | -0.3
naz (nazgul) | 2 | -0.5 | -0.2
Cdc42 (Cell division cycle 42) | 1 | 2.4 | 3.3
CheB38c (Chemosensory protein B 38c) | 1 | -0.3 | 0.1
Fancl | 1 | -0.1 | -0.2
Pak (p21-activated kinase) | 1 | -0.4 | -0.7
ova (ovaries absent) | 1 | 0.1 | -0.5
Ilp6 (Insulin-like peptide 6) | 1 | -0.3 | -0.8
TpnC73F (Troponin C at 73F) | 1 | -0.1 | -0.4
CG12213 | 1 | -0.1 | -0.2
Es2 | 1 | -0.3 | 0.3
Upf1 (Upf1 RNA helicase) | 1 | -0.3 | -0.4
PTPMT1 (Protein tyrosine phosphatase, mitochondrial 1) | 1 | -0.1 | -0.1
CG32243 | 1 | 0 | -0.1
Cpsf5 (Cleavage and polyadenylation specific factor 5) | 1 | 1.4 | 1.2
CG11550 | 1 | -0.1 | -0.1
fwd (four wheel drive) | 1 | -0.2 | 0.1
CG10602 | 1 | -0.1 | -0.4
CG3502 | 1 | -0.3 | 0
osi (orsai) | 1 | -0.3 | -0.1
mRpL16 (mitochondrial ribosomal protein L16) | 1 | -0.3 | -0.1
CG14329 | 1 | -0.3 | 0.2
CG8093 | 1 | -0.3 | -0.2
Ice1 (Interacts with the C terminus of ELL 1) | 1 | 5 | 4.5
CG15048 (retired record) | 1 | 0.1 | 0.4
Wdr24 (WD repeat domain 24) | 1 | -0.4 | -0.6
IFT43 (Intraflagellar transport 43) | 1 | -0.3 | -0.5
CG8915 | 1 | -0.1 | -0.1
l(3)62Be (retired record) | 1 | 0.5 | 0.8
rudhira | 1 | -0.1 | -0.7
CG34214 | 1 | -0.2 | -0.1
Sox100B | 1 | 3.2 | 0.6
Sox100B | 2 | -0.3 | -0.1
CG8924 | 1 | 0.2 | -0.3
spi (spitz) | 1 | -0.2 | -0.4
T3dh + pgc | 1 | -0.4 | -0.5
CG6432 | 1 | -0.3 | -0.5
Argk2 (Arginine kinase 2) | 1 | -0.1 | -0.4
side-VII (sidestep VII) | 1 | -0.3 | -0.8
CG3592 | 1 | -0.3 | -0.5
CG12567 | 1 | -0.2 | -0.1
Pino (Pinocchio) | 1 | -1.3 | -0.7
Pino (Pinocchio) | 2 | -0.2 | -0.5
Mettl14 (Methyltransferase like 14) | 1 | -0.4 | -0.5
Hsp70Bb + Hsp70Bbb | 1 | -0.3 | -0.2
acs (arcus) | 1 | -0.3 | -0.1
CG7579 | 1 | -0.2 | -0.5
Gnptab | 1 | -0.3 | -0.4
Tomosyn | 1 | -0.2 | -0.7
Tomosyn | 2 | -0.1 | -0.3
Tomosyn | 3 | -0.3 | 0.1
Tomosyn | 4 | -0.2 | -0.3
